PubChem BioAssay AID493246, Drosophila RNAi Screening Center | 2011
The screen tested about 21,000 reagents; this is a random part of those that have a named target and a result. Over the whole deposit, 429 (2%) are marked active. 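Values are raw and not normalised between plates; calls rest on per-plate z-scores that were not deposited.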 Unmarked entries are inactive. A plus sign joins genes that one reagent is predicted to hit. Not stated in the record: the amount of reagent, the time to read-out.

Assay: 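Identify essential fly genes by loss of cell viability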 (primary screen)
Cells: Drosophila Kc and S2R+ cells
Reagent: long dsRNA against Drosophila genes
Read-out: 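Cell number per well after knock-down, printed as raw plate values; calls were based on per-plate z-scores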
Direction: Kc cell number and S2R+ cell number: higher = more cells remaining
Hit rule: 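Counted as a hit if cell number falls by a z-score of at least 3 within its plate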

What did the screen give for Ndc80?
Kc cell number, rep 1: 7.39e5; S2R+ cell number, rep 1: 8.55e5

With CG34326 (retired record), how do the results read?
Kc cell number, rep 1: 1.38e6; Kc cell number, rep 2: 1.67e6; S2R+ cell number, rep 1: 1.09e6; S2R+ cell number, rep 2: 1.24e6

How did the screen score ND-24L?
Kc cell number, rep 1: 1.64e6; Kc cell number, rep 2: 1.87e6; S2R+ cell number, rep 1: 1.39e6; S2R+ cell number, rep 2: 1.48e6

What did the screen give for TwdlN?
Kc cell number, rep 1: 1.47e6; Kc cell number, rep 2: 1.63e6; S2R+ cell number, rep 1: 9.47e5; S2R+ cell number, rep 2: 1.07e6

Which result is listed for CG15019?
Kc cell number, rep 1: 1.74e6; Kc cell number, rep 2: 1.63e6; S2R+ cell number, rep 1: 9.38e5; S2R+ cell number, rep 2: 1.08e6

What is on record for CG6729?
Kc cell number, rep 1: 1.59e6; Kc cell number, rep 2: 1.56e6; S2R+ cell number, rep 1: 1.14e6; S2R+ cell number, rep 2: 1.16e6

For CG43339 + CG43338, what was measured?
Kc cell number, rep 1: 1.32e6; Kc cell number, rep 2: 1.38e6; S2R+ cell number, rep 1: 1.22e6; S2R+ cell number, rep 2: 1.22e6

With ATPsynB, what was measured?
Kc cell number, rep 1: 1.01e6; Kc cell number, rep 2: 1.24e6; S2R+ cell number, rep 1: 1.01e6; S2R+ cell number, rep 2: 6.01e5

How did the screen score CG5498?
Kc cell number, rep 1: 1.46e6; Kc cell number, rep 2: 1.47e6; S2R+ cell number, rep 1: 1.27e6; S2R+ cell number, rep 2: 1.28e6

How did the screen score Sox21a?
Kc cell number, rep 1: 1.52e6; Kc cell number, rep 2: 1.50e6; S2R+ cell number, rep 1: 1.23e6; S2R+ cell number, rep 2: 1.27e6

What is on record for CG34256?
Kc cell number, rep 1: 1.56e6; Kc cell number, rep 2: 1.66e6; S2R+ cell number, rep 1: 1.16e6; S2R+ cell number, rep 2: 1.41e6

Which result is listed for CG34267?
Kc cell number, rep 1: 1.47e6; Kc cell number, rep 2: 1.40e6; S2R+ cell number, rep 1: 1.02e6; S2R+ cell number, rep 2: 1.17e6

For Yp3, how do the results read?
Kc cell number, rep 1: 1.57e6; Kc cell number, rep 2: 1.59e6; S2R+ cell number, rep 1: 1.02e6; S2R+ cell number, rep 2: 1.15e6

What did the screen give for CG4991?
Kc cell number, rep 1: 1.53e6; Kc cell number, rep 2: 1.63e6; S2R+ cell number, rep 1: 1.02e6; S2R+ cell number, rep 2: 1.17e6
